Measured values from the supplement of paper PMC7024190.
Counter-ions that a name gives are not always drawn. This is one part of the list. Single values are uncertain here, since repeats match poorly.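 A first-round screen of about ten thousand compounds sought those raising reporter output, using human embryonic kidney cells briefly transfected with a plasmid carrying a Renilla luciferase gene driven by the HSV-TK promoter.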

These molecules were tested on HEK 293FT (assay: log relative Renilla luciferase luminescence (reporter expression vs reference, reference not stated) (log (base not stated)); higher = higher recombinant reporter expression). Settings: 10 µM; time after transfection 48 h.

Compound | log
C/C(=C(\CCOP(=O)(O)O)SC(=O)c1ccccc1)N(C=O)Cc1cnc(C)nc1N [benfotiamine] | -0.124
Nc1c2c(nc3ccccc13)CCCC2 [tacrine hydrochloride] | 0.143
CCCCC(CC)COC(=O)C(C#N)=C(c1ccccc1)c1ccccc1 (centres undefined) [octocrylene] | 0.0621
O=c1cc(-c2ccccc2)oc2cc(O)cc(O)c12 [chrysin] | -0.0611
C#C[C@]1(O)CC[C@H]2[C@@H]3CCc4cc(O)ccc4[C@H]3CC[C@@]21C [ethinyl estradiol] | 0.142
CC(C)=CC1C(CO)C1(C)C (centres undefined) [chrysanthemyl alcohol] | -0.0992
Cc1occc(=O)c1O [larixinic acid] | -0.0383
CC1(C)CC23C(=O)CCC(O)C2(C)CCC13 (centres undefined) [3-nor-3-oxopanasinsan-6-ol] | -0.121
CCC(C(N)=O)c1ccccc1 (centres undefined) [fenbutyramide] | -0.0145
CCOc1cc(CC(=O)N[C@@H](CC(C)C)c2ccccc2N2CCCCC2)ccc1C(=O)O [repaglinide] | 0.0689
COc1cc2c(cc1OC)C1(O)C(=O)c3ccc(O)c(C(=O)O)c3OC1CO2 (centres undefined) [12a-hydroxy-9-demethylmunduserone-8-carboxylic acid] | 0.102
C#CCCCCCCCCCCCC(O)CC(O)COC(C)=O (centres undefined) [avocadyne acetate] | -0.0374
CC(=O)OCC(=O)[C@@]1(O)[C@H](C)C[C@H]2[C@@H]3CCC4=CC(=O)C=C[C@]4(C)[C@@]3(F)[C@@H](O)C[C@@]21C [dexamethasone acetate] | 0.00852
CC1(C)C(=O)C=CC2(C)C1C=CC1(C)C2CCC2(C)C(c3ccoc3)OC(=O)C3OC312 (centres undefined) [7-desacetoxy-6,7-dehydrogedunin] | -0.0138
COc1ncnc(NS(=O)(=O)c2ccc(N)cc2)c1OC [sulfadoxine] | -0.0119
CC1(C)CCC[C@]2(C)[C@H]3CC(=O)O[C@]3(C)CC[C@@H]12 [sclareolide] | 0.00562
COc1c(N2C[C@@H]3CCCN[C@@H]3C2)c(F)cc2c(=O)c(C(=O)O)cn(C3CC3)c12 [moxifloxacin hydrochloride] | -0.164
COc1ccc(C(=O)c2ccccc2)c(O)c1 [oxybenzone] | -0.0898
COc1ccc(C(=O)CC(=O)c2ccc(C(C)(C)C)cc2)cc1 [avobenzone] | 0.00202
Nc1nc2c(ncn2COCCO)c(=O)[nH]1 [acyclovir] | 0.138
CC1(C)C(=O)[C@H]2C[C@]3(O)C4=CC(=O)O[C@@H](c5ccoc5)[C@@]4(C)CCC3[C@](C)(C2=O)[C@H]1CC(=O)O (some centres undefined) [8-hydroxycarapinic acid] | 0.144
CCCCCN(CCCCC)C(=O)C(CCC(=O)O)NC(=O)c1ccc(Cl)c(Cl)c1 (centres undefined) [lorglumide sodium] | 0.0647
O=c1cc(-c2ccccc2O)oc2cc(O)ccc12 [7,2'-dihydroxyflavone] | -0.013
CC(C)NCC(O)c1ccc(O)c(O)c1 (centres undefined) [isoproterenol hydrochloride] | 0.136
COc1ccc2[nH]c([S@@+]([O-])Cc3ncc(C)c(OC)c3C)nc2c1 [esomeprazole potassium] | 0.109

Two of the compounds above, in markdown.

| Compound | log |
| --- | --- |
| CC(=O)OCC(=O)[C@@]1(O)[C@H](C)C[C@H]2[C@@H]3CCC4=CC(=O)C=C[C@]4(C)[C@@]3(F)[C@@H](O)C[C@@]21C [dexamethasone acetate] | 0.00852 |
| CC1(C)CCC[C@]2(C)[C@H]3CC(=O)O[C@]3(C)CC[C@@H]12 [sclareolide] | 0.00562 |

The listing continues.

Compound | log
CCCCC(CC)COC(=O)C=Cc1ccc(OC)cc1 (centres undefined) [octinoxate] | 0.0873
CC(C)c1c(O)ccc2c1CC[C@H]1C(C)(C)CCC[C@]21C [totarol] | 0.0387
CCCC1O[C@@H]2C[C@H]3[C@@H]4CCC5=CC(=O)C=C[C@]5(C)[C@H]4[C@@H](O)C[C@]3(C)[C@]2(C(=O)CO)O1 (some centres undefined) [budesonide] | -0.0711
O=NN(CCCl)C(=O)NCCCl [carmustine] | -0.075
CCOC(=O)c1ncn2c1CN(C)C(=O)c1cc(F)ccc1-2 [flumazenil] | 0.0186
CC1=C(/C=C/C(C)=C/C=C/C(C)=C/C=C/C=C(C)/C=C/C=C(C)/C=C/C2=C(C)C(=O)CCC2(C)C)C(C)(C)CCC1=O [canthaxanthin (euglenanone)] | 0.0767
Nc1nc(N)c2nc(CNc3ccc(C(=O)N[C@@H](CCC(=O)O)C(=O)O)cc3)cnc2n1 [aminopterin] | -0.0551
CC(C(=O)O)c1cccc(C(=O)c2ccccc2)c1 (centres undefined) [ketoprofen] | -0.137
C[C@H]1O[C@@H](n2cc(F)c(=O)[nH]c2=O)[C@H](O)[C@@H]1O [doxifluridine] | -0.0232
O=c1c(-c2ccc(O)cc2)coc2cc(O)ccc12 [daidzein] | 0.097
CN1C(=O)OC(C)(C)C1=O [trimethadione] | 0.0481
CC(=O)CCCCn1c(=O)c2c(ncn2C)n(C)c1=O [pentoxifylline] | 0.128
CN(C/C=C/c1ccccc1)Cc1cccc2ccccc12 [naftifine hydrochloride] | -0.165
NCCNCCNCCN [trientine hydrochloride] | 0.116
O=C(CCc1ccc(O)cc1)c1c(O)cc(O)cc1O[C@@H]1OC(CO)[C@@H](O)[C@@H](O)C1O (some centres undefined) [phloridzin] | 0.0818
COc1c(C)c2c(c(O)c1C/C=C(\C)CCC(=O)O)C(=O)OC2 [mycophenolic acid] | -1.58
O=C(O)c1ccc(S(=O)(=O)N(Cl)Cl)cc1 [halazone] | 0.0398
O=C(Oc1ccccc1C(=O)O)c1ccccc1O [salsalate] | -0.0552
CCCCCNC(=N)N/N=C/c1c[nH]c2ccc(OC)cc12 [tegaserod maleate] | -0.273
CCN1CCCC(OC(=O)C(c2ccccc2)c2ccccc2)C1 (centres undefined) [piperidolate hydrochloride] | 0.0338
Nc1ccc(C(=O)O)cc1 [potassium p-aminobenzoate] | 0.0108
CCCCCC(=O)O[C@]1(C(C)=O)CC[C@H]2[C@@H]3CCC4=CC(=O)CC[C@]4(C)[C@H]3CC[C@@]21C [hydroxyprogesterone caproate] | -0.176
O=C(O[C@@H]1Cc2c(O)cc(O)cc2O[C@@H]1c1ccc(O)c(O)c1)c1cc(O)c(O)c(O)c1 [epicatechin monogallate] | 0.0626
OC(c1cc(C(F)(F)F)nc2c(C(F)(F)F)cccc12)C1CCCCN1 (centres undefined) [mefloquine] | -0.0681
CNCCCC12CCC(c3ccccc31)c1ccccc12 [maprotiline hydrochloride] | 0.0992

Compound | log
CC[C@H]1OC(=O)C[C@@H](O)[C@H](C)[C@@H](O[C@@H]2O[C@H](C)[C@@H](O)[C@H](N(C)C)[C@H]2O)[C@@H](CCN2C[C@H](C)C[C@H](C)C2)C[C@@H](C)C(=O)/C=C/C(C)=C/[C@@H]1CO[C@@H]1O[C@H](C)[C@@H](O)[C@@H](OC)[C@H]1OC [tilmicosin] | -0.105
Cc1coc2c1C(=O)C(=O)c1c-2ccc2c1CCCC2(C)C [tanshinone iia] | -0.00986
C[C@]12C=CC(=O)C=C1CC[C@H]1[C@@H]3C[C@@H](O)[C@](O)(C(=O)CO)[C@@]3(C)C[C@H](O)[C@@]12F [triamcinolone] | -0.337
CCN(CC)C(=O)/C(C#N)=C/c1cc(O)c(O)c([N+](=O)[O-])c1 [entacapone] | 0.0992
C[C@@H]1O[C@@H](OC[C@H]2O[C@@H](Oc3c(-c4ccc(OCCO)c(OCCO)c4)oc4cc(OCCO)cc(O)c4c3=O)[C@H](O)[C@@H](O)[C@@H]2O)[C@H](O)[C@H](O)[C@H]1O [troxerutin] | 0.0569
C[C@@H](O)[C@H]1C(=O)N2C(C(=O)O)=C(S[C@@H]3CN[C@H](C(=O)N(C)C)C3)[C@H](C)[C@H]12 [meropenem] | 0.02
COc1ccc(C(=O)O)c(O)c1OC [2-hydroxy-3,4-dimethoxybenzoic acid] | -0.0363
Cc1cc(C)cc(OCC2CNC(=O)O2)c1 (centres undefined) [metaxalone] | 0.16
CC(=O)O[C@H]1C[C@@H]2CC[C@@H]3[C@H](CC[C@@]4(C)[C@H]3C[C@H]([N+]3(C)CCCCC3)[C@@H]4OC(C)=O)[C@@]2(C)C[C@@H]1N1CCCCC1 [vecuronium bromide] | -0.0526
CCOC(=O)c1c(C)cc(O)c(C=O)c1O [haematommic acid, ethyl ester] | -0.158
CCN(CC)CCOC(=O)c1ccc(N)cc1 [procaine hydrochloride] | -0.0145
CC[C@H](C)C(=O)O[C@H]1C[C@@H](C)C=C2C=C[C@H](C)[C@H](CC[C@@H]3C[C@@H](O)CC(=O)O3)[C@H]21 [lovastatin] | 0.104
Cc1c(C)c2c(c(C)c1O)CCC(C)(C(=O)O)O2 (centres undefined) [trolox] | -0.064
COc1ccc(-c2coc3c4c(c(CC=C(C)C)c(O)c3c2=O)OC(C)(C)C=C4)cc1 [osajin 4'-methyl ether] | -0.00923
Oc1cccc2[nH]ccc12 [4-hydroxyindole] | -0.00923
CC(C)C[C@H](N)C(=O)N[C@@H](C)C(=O)O [l-leucyl-l-alanine] | 0.0623
CC(=O)N[C@@H](CS)C(=O)O [acetylcysteine] | 0.0139
CC(=O)O[C@H]1C[C@@]2(C)[C@@H](C[C@@H](O)[C@H]3[C@@]4(C)CC[C@@H](O)[C@@H](C)[C@@H]4CC[C@@]32C)/C1=C(\CCC=C(C)C)C(=O)O [fusidic acid] | 0.224
COc1cccc(-c2cc(=O)c3cc(OC)ccc3o2)c1 [6,3'-dimethoxyflavone] | 0.191
COc1cc(C2Oc3cc([C@H]4Oc5cc(O)cc(O)c5C(=O)[C@@H]4O)ccc3OC2CO)ccc1O (some centres undefined) [silibinin] | -0.116
O=c1cc(-c2ccccc2)oc2cc(O)c(O)c(O)c12 [baicalein] | 0.0136
CC(C)CCCC(C)N (centres undefined) [octodrine] | -0.0665
NCCCC(O)(P(=O)(O)O)P(=O)(O)O [alendronate sodium] | 0.0299
CNC[C@H](O)[C@@H](O)[C@H](O)[C@H](O)CO [meglumine] | -0.136
